Some entries share one result that the patent states for a list of compounds.
Tests used:
Type in all cases: in vivo
[1] = test system: Diamond Back Moth (Plutella xylostella); assay: Diamond back moth, cabbage leaf dip test; conditions: 300 ppm; 3rd instar larvae on dipped cabbage leaves; 72 hours after treatment; in comparison with untreated controls
Experimental: B.1 Diamond Back Moth (Plutella xylostella)
The active compound was dissolved at the desired concentration in a mixture of 1:1 (vol:vol) distilled water:aceteone. Surfactant (Kinetic HV) was added at a rate of 0.01% (vol/vol). The test solution was prepared at the day of use.
Leaves of cabbage were dipped in test solution and air-dried. Treated leaves were placed in petri dishes lined with moist filter paper and inoculated with ten 3rd instar larvae. Mortality was recorded 72 hours after treatment.

[2] = test system: Green Peach Aphid (Myzus persicae); assay: Green peach aphid, systemic test on artificial diet in microtiter plates; conditions: 2500 ppm; adult aphids on treated artificial diet; 3 days; in comparison with untreated controls
Text: B.2 Green Peach Aphid (Myzus persicae)
For evaluating control of green peach aphid (Myzus persicae) through systemic means the test unit consisted of 96-well-microtiter plates containing liquid artificial diet under an artificial mem brane.
The compounds were formulated using a solution containing 75% v/v water and 25% v/v DMSO. Different concentrations of formulated compounds were pipetted into the aphid diet, using a custom built pipetter, at two replications.
After application, 5-8 adult aphids were placed on the artificial membrane inside the microtiter plate wells. The aphids were then allowed to suck on the treated aphid diet and incubated at about 23±1° C. and about 50±5% relative humidity for 3 days. Aphid mortality and fecundity was then visually assessed.

[3] = test system: Vetch Aphid (Megoura viciae); assay: Vetch aphid, broad bean leaf disk test; conditions: 2500 ppm; adult aphids on sprayed broad bean leaf disks; 5 days; in comparison with untreated controls
Experimental: B.3 Vetch Aphid (Megoura viciae)
For evaluating control of vetch aphid (Megoura viciae) through contact or systemic means the test unit consisted of 24-well-microtiter plates containing broad bean leaf disks.
The compounds were formulated using a solution containing 75% v/v water and 25% v/v DMSO. Different concentrations of formulated compounds were sprayed onto the leaf disks at 2.5 μl, using a custom built micro atomizer, at two replications.
After application, the leaf disks were air-dried and 5-8 adult aphids placed on the leaf disks inside the microtiter plate wells. The aphids were then allowed to suck on the treated leaf disks and incubated at about 23±1° C. and about 50±5% relative humidity for 5 days. Aphid mortality and fecundity was then visually assessed.

[4] = test system: Tobacco Budworm (Heliothis virescens); assay: Tobacco budworm, insect diet microtiter plate test; conditions: 2500 ppm; eggs on sprayed insect diet; egg and larval mortality after 5 days; in comparison with untreated controls
Experimental: B.4 Tobacco Budworm (Heliothis virescens)
For evaluating control of tobacco budworm (HeliothiS virescens) the test unit consisted of 96-well-microtiter plates containing an insect diet and 15-25 H. virescens eggs.
The compounds were formulated using a solution containing 75% v/v water and 25% v/v DMSO. Different concentrations of formulated compounds were sprayed onto the insect diet at 10 μl, using a custom built micro atomizer, at two replications.
(§1) After application, microtiter plates were incubated at about 28±1° C. and about 80±5% relative humidity for 5 days. Egg and larval mortality was then visually assessed.

[5] = test system: Boll Weevil (Anthonomus grandis); assay: Boll weevil, insect diet microtiter plate test; conditions: 2500 ppm; eggs on sprayed insect diet; egg and larval mortality after 5 days; in comparison with untreated controls
Experimental: B.5 Boll Weevil (Anthonomus grandis)
For evaluating control of boll weevil (Anthonomus grandis) the test unit consisted of 96-well-microtiter plates containing an insect diet and 5-10 A. grandis eggs.
(§2) The compounds were formulated using a solution containing 75% v/v water and 25% v/v DMSO. Different concentrations of formulated compounds were sprayed onto the insect diet at 5 μl, using a custom built micro atomizer, at two replications.
After application, microtiter plates were incubated at about 25±1° C. and about 75±5% relative humidity for 5 days. Egg and larval mortality was then visually assessed.

[6] = test system: Mediterranean Fruitfly (Ceratitis capitata); assay: Mediterranean fruitfly, insect diet microtiter plate test; conditions: 2500 ppm; eggs on sprayed insect diet; egg and larval mortality after 5 days; in comparison with untreated controls
Experimental: B.6 Mediterranean Fruitfly (Ceratitis capitata)
as §2, with “For evaluating control of Mediterranean fruitfly (CeratitiS capitata) the test unit consisted of microtiter plates containing an insect diet and 50-80 C. capitata eggs. The” for “The”
as §1

[7] = test system: Orchid Thrips (dichromothrips corbetti); assay: Orchid thrips, floral-immersion technique; conditions: 300 ppm; adult thrips on dipped orchid petals; 72 hours after treatment; in comparison with untreated controls
Experimental: B.7 Orchid Thrips (dichromothrips corbetti)
Dichromothrips corbetti adults used for bioassay were obtained from a colony maintained continuously under laboratory conditions. For testing purposes, the test compound is diluted in a 1:1 mixture of acetone:water (vol:vol), plus Kinetic HV at a rate of 0.01% v/v.
Thrips potency of each compound was evaluated by using a floral-immersion technique. All petals of individual, intact orchid flowers were dipped into treatment solution and allowed to dry in Petri dishes. Treated petals were placed into individual re-sealable plastic along with about 20 adult thrips. All test arenas were held under continuous light and a temperature of about 28° C. for duration of the assay. After 3 days, the numbers of live thrips were counted on each petal. The percent mortality was recorded 72 hours after treatment.

[8] = test system: Rice Green Leafhopper (Nephotettix virescens); assay: Rice green leafhopper, sprayed rice seedlings; conditions: 300 ppm; adults on sprayed rice seedlings; after 72 hours; in comparison with untreated controls
Experimental: B.8 Rice Green Leafhopper (Nephotettix virescens)
Rice seedlings were cleaned and washed 24 hours before spraying. The active compounds were formulated in 1:1 acetone:water (vol:vol), and 0.01% vol/vol surfactant (Kinetic HV) was added. Potted rice seedlings were sprayed with 5-6 ml test solution, air dried, covered with Mylar cages cages and inoculated with 10 adults. Treated rice plants were kept at about 28-29° C. and relative humidity of about 50-60%. Percent mortality was recorded after 72 hours.

[9] = test system: Red Spider Mite (Tetranychus kanzawai); assay: Red spider mite, sprayed cowpea beans; conditions: 300 ppm; mites on sprayed cowpea beans; 72 hours after treatment; in comparison with untreated controls
Experimental: B.9 Red Spider Mite (Tetranychus kanzawai)
The active compound was dissolved at the desired concentration in a mixture of 1:1 (vol:vol) distilled water:acetone. Add surfactant (Kinetic HV) was added at a rate of 0.01% (vol/vol). The test solution was prepared at the day of use.
Potted cowpea beans of 4-5 days of age were cleaned with tap water and sprayed with 1-2 ml of the test solution using air driven hand atomizer. The treated plants were allowed to air dry and afterwards inoculated with 30 or more mites by clipping a cassava leaf section from rearing population. Treated plants were placed inside a holding room at about 25-27° C. and about 50-60% relative humidity. Percent mortality was assessed 72 hours after treatment.

[10] = test system: Green Soldier Stink Bug (Nezara viridula); assay: Green soldier stink bug, sprayed soybean pods in Petri dishes; conditions: 300 ppm; late 3rd instar on soybean pods; after 5 days; in comparison with untreated controls
Experimental: B.11 Green Soldier Stink Bug (Nezara viridula)
The active compound was dissolved at the desired concentration in a mixture of 1:1 (vol:vol) distilled water:acetone. Surfactant (Kinetic HV) was added at a rate of 0.01% (vol/vol). The test solution was prepared at the day of use.
Soybean pods were placed in glass Petri dishes lined with moist filter paper and inoculated with ten late 3rd instar N. viridula. Using a hand atomizer, approximately 2 ml solution is sprayed into each Petri dish. Assay arenas were kept at about 25° C. Percent mortality was recorded after 5 days.

Measured: mortality

O=C(NC1CON(CC(F)(F)F)C1=O)c1ccc(C2=NOC(c3cc(Cl)cc(Cl)c3)(C(F)(F)F)C2)c2c1CCC2 (mixture of isomers) [Compound 1-39]
at least 75%: all assays above

O=C(NC1CON(CC(F)(F)F)C1=O)c1ccc(C2=NOC(c3cc(Cl)c(F)c(Cl)c3)(C(F)(F)F)C2)c2c1CCC2 (mixture of isomers) [Compound 1-61]
at least 75%: all assays above

CCN1OCC(NC(=O)c2ccc(C3=NOC(c4cc(Cl)c(F)c(Cl)c4)(C(F)(F)F)C3)c3c2CCC3)C1=O (mixture of isomers) [Compound 1-62]
at least 75%: all assays above

O=C(NCc1cccnn1)c1ccc(C2=NOC(c3cc(Cl)c(F)c(Cl)c3)(C(F)(F)F)C2)c2c1CCC2 (racemic) [Compound 1-63]
at least 75%: all assays above

O=C(NCc1ncc(Br)cn1)c1ccc(C2=NOC(c3cc(Cl)c(F)c(Cl)c3)(C(F)(F)F)C2)c2c1CCC2 (racemic) [Compound 1-64]
at least 75%: all assays above

O=C(NCC(Cl)=C(Cl)Cl)c1ccc(C2=NOC(c3cc(Cl)c(F)c(Cl)c3)(C(F)(F)F)C2)c2c1CCC2 (racemic) [Compound 1-70]
not listed: [10]
at least 75%: all other assays above

O=C(NCc1nccc(C(F)(F)F)n1)c1ccc(C2=NOC(c3cc(Cl)c(F)c(Cl)c3)(C(F)(F)F)C2)c2c1CCC2 (racemic) [Compound 1-71]
not listed: [10]
at least 75%: all other assays above

NC(=O)c1ccc(C2=NOC(c3cc(Cl)c(F)c(Cl)c3)(C(F)(F)F)C2)c2c1CCC2 (centres unmarked) [Compound 1-15]
not listed: [9]
at least 75%: all other assays above

C=CCNC(=O)CNC(=O)c1ccc(C2=NOC(c3cc(Cl)c(F)c(Cl)c3)(C(F)(F)F)C2)c2c1CCC2 (centres unmarked) [Compound 1-52]
not listed: [10]
at least 75%: all other assays above

CC(NC(=O)c1ccc(C2=NCC(c3cc(Cl)cc(Cl)c3)(C(F)(F)F)C2)c2c1CCC2)C(=O)NCC(F)(F)F (centres unmarked) [Compound 2-22]
not listed: [8]
at least 75%: all other assays above

O=C(NC1CC1)c1ccc(C2=NOC(c3cc(Cl)cc(Cl)c3)(C(F)(F)F)C2)c2c1CCCC2 (centres unmarked) [Compound 3-6]
not listed: [10]
at least 75%: all other assays above

From patent US10226045B2, “Azoline compounds” (priority 2014, dated 2019)
